Our source for the binding values is article PMC8269312.

No constants are given. Whether binding was seen depends on the method and setting. Binding seen in cells or lysates may run through a third protein. Some binding calls cover weakened binding; strength is not graded here. Where a sequence is shown, tags or fusion partners need not be part of it.

In assay [1] the target is T1, NanoLuc-fused GART (trifunctional purine biosynthetic protein adenosine-3) (UniProt P22102).
T1 sequence: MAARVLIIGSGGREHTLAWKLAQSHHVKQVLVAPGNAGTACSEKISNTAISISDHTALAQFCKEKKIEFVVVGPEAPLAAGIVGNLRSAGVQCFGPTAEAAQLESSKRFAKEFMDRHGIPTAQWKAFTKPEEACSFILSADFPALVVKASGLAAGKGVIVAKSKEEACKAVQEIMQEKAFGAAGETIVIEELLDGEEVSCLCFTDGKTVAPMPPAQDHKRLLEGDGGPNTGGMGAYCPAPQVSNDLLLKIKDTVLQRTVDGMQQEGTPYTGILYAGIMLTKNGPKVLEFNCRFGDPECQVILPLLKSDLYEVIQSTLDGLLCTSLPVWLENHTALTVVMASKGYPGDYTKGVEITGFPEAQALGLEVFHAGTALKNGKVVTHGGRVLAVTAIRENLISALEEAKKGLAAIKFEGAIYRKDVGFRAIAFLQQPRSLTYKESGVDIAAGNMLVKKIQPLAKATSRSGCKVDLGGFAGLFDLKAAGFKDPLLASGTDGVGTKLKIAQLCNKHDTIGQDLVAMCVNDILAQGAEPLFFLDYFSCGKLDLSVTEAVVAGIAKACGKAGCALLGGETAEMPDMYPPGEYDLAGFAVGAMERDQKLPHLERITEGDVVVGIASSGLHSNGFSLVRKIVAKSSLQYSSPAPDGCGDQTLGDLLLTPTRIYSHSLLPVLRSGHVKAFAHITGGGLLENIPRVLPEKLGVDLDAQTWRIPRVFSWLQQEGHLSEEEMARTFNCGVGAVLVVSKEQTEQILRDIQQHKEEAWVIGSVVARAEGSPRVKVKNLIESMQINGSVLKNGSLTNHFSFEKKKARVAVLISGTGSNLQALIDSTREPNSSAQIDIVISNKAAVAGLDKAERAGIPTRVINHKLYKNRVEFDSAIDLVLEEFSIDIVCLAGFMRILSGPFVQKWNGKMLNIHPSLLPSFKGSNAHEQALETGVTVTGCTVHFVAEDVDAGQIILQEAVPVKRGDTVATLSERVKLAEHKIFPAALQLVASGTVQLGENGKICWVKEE
Description: FRET or BRET; NanoBRET in HEK 293 cells transfected with NanoLuc and HaloTag fusion vectors of ITK and GART, or the HaloTag control vector; NanoBRET Nano-Glo Detection system, GloMax Discover; BRET ratios in milliBRET units (mBU); HaloTag concentration varied. (Bioluminescence resonance energy transfer reports proximity on the nanometre scale.)

For assay [2], the target named is T2, NanoLuc-fused ITK (interleukin-2-inducible T-cell kinase) (human) (UniProt Q08881).
T2 sequence: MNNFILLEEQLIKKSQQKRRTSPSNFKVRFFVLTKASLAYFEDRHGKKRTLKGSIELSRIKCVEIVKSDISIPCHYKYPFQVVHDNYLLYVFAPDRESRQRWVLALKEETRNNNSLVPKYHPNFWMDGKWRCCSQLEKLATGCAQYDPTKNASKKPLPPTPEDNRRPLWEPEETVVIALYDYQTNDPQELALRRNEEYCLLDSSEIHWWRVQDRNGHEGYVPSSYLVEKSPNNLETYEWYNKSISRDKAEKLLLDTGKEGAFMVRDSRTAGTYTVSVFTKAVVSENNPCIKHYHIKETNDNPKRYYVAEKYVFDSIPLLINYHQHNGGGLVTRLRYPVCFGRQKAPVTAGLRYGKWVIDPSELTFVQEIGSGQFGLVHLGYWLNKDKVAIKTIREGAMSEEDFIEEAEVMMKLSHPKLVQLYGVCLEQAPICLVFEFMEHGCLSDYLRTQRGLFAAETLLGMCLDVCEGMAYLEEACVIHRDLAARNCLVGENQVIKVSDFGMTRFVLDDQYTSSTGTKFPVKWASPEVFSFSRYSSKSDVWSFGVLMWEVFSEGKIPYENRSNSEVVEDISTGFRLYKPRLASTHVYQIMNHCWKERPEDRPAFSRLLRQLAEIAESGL
The description is as above.

B1: HaloTag-fused ITK (interleukin-2-inducible T-cell kinase) (enzyme, UniProt Q08881 1-620)
chain: MNNFILLEEQLIKKSQQKRRTSPSNFKVRFFVLTKASLAYFEDRHGKKRTLKGSIELSRIKCVEIVKSDISIPCHYKYPFQVVHDNYLLYVFAPDRESRQRWVLALKEETRNNNSLVPKYHPNFWMDGKWRCCSQLEKLATGCAQYDPTKNASKKPLPPTPEDNRRPLWEPEETVVIALYDYQTNDPQELALRRNEEYCLLDSSEIHWWRVQDRNGHEGYVPSSYLVEKSPNNLETYEWYNKSISRDKAEKLLLDTGKEGAFMVRDSRTAGTYTVSVFTKAVVSENNPCIKHYHIKETNDNPKRYYVAEKYVFDSIPLLINYHQHNGGGLVTRLRYPVCFGRQKAPVTAGLRYGKWVIDPSELTFVQEIGSGQFGLVHLGYWLNKDKVAIKTIREGAMSEEDFIEEAEVMMKLSHPKLVQLYGVCLEQAPICLVFEFMEHGCLSDYLRTQRGLFAAETLLGMCLDVCEGMAYLEEACVIHRDLAARNCLVGENQVIKVSDFGMTRFVLDDQYTSSTGTKFPVKWASPEVFSFSRYSSKSDVWSFGVLMWEVFSEGKIPYENRSNSEVVEDISTGFRLYKPRLASTHVYQIMNHCWKERPEDRPAFSRLLRQLAEIAESGL
For the molecule B1, the binding entry in assay [1] is recorded as “binds”.

B2: HaloTag-fused GART (trifunctional purine biosynthetic protein adenosine-3) (enzyme, UniProt P22102 1-1010)
chain: MAARVLIIGSGGREHTLAWKLAQSHHVKQVLVAPGNAGTACSEKISNTAISISDHTALAQFCKEKKIEFVVVGPEAPLAAGIVGNLRSAGVQCFGPTAEAAQLESSKRFAKEFMDRHGIPTAQWKAFTKPEEACSFILSADFPALVVKASGLAAGKGVIVAKSKEEACKAVQEIMQEKAFGAAGETIVIEELLDGEEVSCLCFTDGKTVAPMPPAQDHKRLLEGDGGPNTGGMGAYCPAPQVSNDLLLKIKDTVLQRTVDGMQQEGTPYTGILYAGIMLTKNGPKVLEFNCRFGDPECQVILPLLKSDLYEVIQSTLDGLLCTSLPVWLENHTALTVVMASKGYPGDYTKGVEITGFPEAQALGLEVFHAGTALKNGKVVTHGGRVLAVTAIRENLISALEEAKKGLAAIKFEGAIYRKDVGFRAIAFLQQPRSLTYKESGVDIAAGNMLVKKIQPLAKATSRSGCKVDLGGFAGLFDLKAAGFKDPLLASGTDGVGTKLKIAQLCNKHDTIGQDLVAMCVNDILAQGAEPLFFLDYFSCGKLDLSVTEAVVAGIAKACGKAGCALLGGETAEMPDMYPPGEYDLAGFAVGAMERDQKLPHLERITEGDVVVGIASSGLHSNGFSLVRKIVAKSSLQYSSPAPDGCGDQTLGDLLLTPTRIYSHSLLPVLRSGHVKAFAHITGGGLLENIPRVLPEKLGVDLDAQTWRIPRVFSWLQQEGHLSEEEMARTFNCGVGAVLVVSKEQTEQILRDIQQHKEEAWVIGSVVARAEGSPRVKVKNLIESMQINGSVLKNGSLTNHFSFEKKKARVAVLISGTGSNLQALIDSTREPNSSAQIDIVISNKAAVAGLDKAERAGIPTRVINHKLYKNRVEFDSAIDLVLEEFSIDIVCLAGFMRILSGPFVQKWNGKMLNIHPSLLPSFKGSNAHEQALETGVTVTGCTVHFVAEDVDAGQIILQEAVPVKRGDTVATLSERVKLAEHKIFPAALQLVASGTVQLGENGKICWVKEE
As for B2, in assay [2], the binding result is given as “binds”.
